In PubChem BioAssay AID2685 (National Center for Advancing Translational Sciences (NCATS), 2010):
This is one part of the list. These are further read-outs of the screen, such as a control signal, another cell line or another target. No call is given for them. Compounds called inactive in the main read-out are mostly missing here. The note in brackets gives the kind of curve behind each potency; many fits are weak.

Assay: qHTS Assay for Lipid Storage Modulators in Drosophila S3 Cells;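 on cell number change: cells counted by Cell Tracker Red CMTPX staining in the red channel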
Conditions: BODIPY lipid droplet fluorescence, 18-24 h; for cell number change: measured here: cell count max response, cells fed with added oleic acid
Method in brief: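 Laser-scanning cytometry quantifies lipid droplet accumulation (500–530 nm total intensity; droplet/cell object ratio) in oleic acid-fed (400 uM added) Drosophila S3 cells treated with a concentration series. 20 uM Triacsin C defined 100% inhibition.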

[1] = measured here: cell number channel AC50, cells fed with added oleic acid
[2] = measured here: lipid fluorescence (Fed channel) AC50, cells fed with added oleic acid

Row | Compound | cell number change | AC50 [1] | AC50 [2]
1 | COc1cccc(NC(=O)CSc2nnc(NC(=O)C3CC3)s2)c1 | 17.1% |  | 
2 | CN(C)/C=C/C(=O)c1ccc(Oc2ncccn2)cc1 | 111% | 1.84 µM [falling, partial curve] | 
3 | CC(C(=O)O)N1C(=O)CSc2ncccc21 (centres undefined) | -18.4% |  | 7.31 µM [falling, partial curve, poor fit]
4 | CC(=O)NCCC1CCCCN1C(=O)c1cc(COc2cc(C)ccc2C)on1 (centres undefined) |  | 6.51 µM [rising, single point] | 29.1 µM [rising, single point]
5 | O=C(COCc1cc(-c2ccc3c(c2)OCO3)on1)Nc1cccnc1 |  |  | 0.58 µM [rising, single point]
6 | CN1CCN(C(=S)Nc2ccc(Oc3ccccc3)cc2)CC1 | -7.21% | 1.03 µM [rising, single point] | 
7 | COc1cccc(CN(Cc2cccnc2)S(=O)(=O)c2ccc(-n3cnnn3)c(C)c2)c1OC | 20.6% | 0.82 µM [rising, full curve, poor fit] | 2.06 µM [rising, partial curve]
8 | COc1ccc(C(=O)Nc2ccc(NC(=O)c3cccs3)cn2)cc1 |  |  | 18.4 µM [falling, single point]
9 | Cc1ccc(NC(=S)NCc2ccc(Cl)cc2)c(OC(F)F)c1 | 25.4% |  | 0.731 µM [rising, full curve]
10 | CC(=O)c1cccc(N(CC(=O)NC2CCCC2)C(=O)CNC(=O)c2cccs2)c1 | 7.39% |  | 
11 | COc1ccc(N(CC(=O)NC2CC3CCC2C3)S(=O)(=O)c2ccccc2)cc1OC (centres undefined) | 23.5% |  | 
12 | Cc1ccc(CN(C)C(=O)CCc2c[nH]c3ccccc23)o1 | 22.6% | 6.51 µM [rising, partial curve, poor fit] | 6.51 µM [rising, single point]
13 | CCOC(=O)CNC(=O)N1CCCC(C(=O)c2cccc(Cl)c2)C1 (centres undefined) | 3.38% |  | 4.11 µM [falling, single point]
14 | O=c1[nH]c(C2CCN(S(=O)(=O)c3ccc(S(=O)(=O)NC4CC4)cc3)CC2)nc2c1nnn2Cc1ccc(F)cc1 | -23.1% |  | 29.1 µM [rising, single point]
15 | COc1ccc(C2(CN(C(C)=O)C(C)=O)CCCC2)cc1OC | 1.31% |  | 
16 | O=C(c1cc([N+](=O)[O-])ccc1N1CCOCC1)N1CCCCC1 | -24.8% |  | 2.31 µM [falling, full curve]
17 | COc1ccc2c(c1)C(C)CC(C)(C)N2C(=O)CSc1nc2ccccc2s1 (centres undefined) | 42.7% | 13 µM [rising, partial curve] | 2.59 µM [rising, full curve, poor fit]
18 | O=S(=O)([O-])C/C(=C\c1ccc(Cl)cc1)c1cc[n+](CCO)cc1 | -49.5% | 29.1 µM [falling, single point] | 8.2 µM [falling, single point]
19 | CCOC(=O)COc1c(Br)cc(/C=C2\SC(=O)N(CC(=O)N3CCCC3)C2=O)cc1OC | 12.4% |  | 
20 | O=C1[C@@H]2C3C=CC(O3)[C@@H]2C(=O)N1c1ccccc1 | 19.4% | 6.51 µM [falling, single point] | 6.51 µM [falling, single point]
21 | Cc1c(C(=O)N2CCCCC2)c(S(=O)(=O)N2c3ccccc3CC2C)c(C)n1C (centres undefined) |  |  | 29.1 µM [rising, single point]

From no. 3 up to 14, copied from above:
Row | Compound | cell number change | AC50 [1] | AC50 [2]
3 | CC(C(=O)O)N1C(=O)CSc2ncccc21 (centres undefined) | -18.4% |  | 7.31 µM [falling, partial curve, poor fit]
4 | CC(=O)NCCC1CCCCN1C(=O)c1cc(COc2cc(C)ccc2C)on1 (centres undefined) |  | 6.51 µM [rising, single point] | 29.1 µM [rising, single point]
5 | O=C(COCc1cc(-c2ccc3c(c2)OCO3)on1)Nc1cccnc1 |  |  | 0.58 µM [rising, single point]
6 | CN1CCN(C(=S)Nc2ccc(Oc3ccccc3)cc2)CC1 | -7.21% | 1.03 µM [rising, single point] | 
7 | COc1cccc(CN(Cc2cccnc2)S(=O)(=O)c2ccc(-n3cnnn3)c(C)c2)c1OC | 20.6% | 0.82 µM [rising, full curve, poor fit] | 2.06 µM [rising, partial curve]
8 | COc1ccc(C(=O)Nc2ccc(NC(=O)c3cccs3)cn2)cc1 |  |  | 18.4 µM [falling, single point]
9 | Cc1ccc(NC(=S)NCc2ccc(Cl)cc2)c(OC(F)F)c1 | 25.4% |  | 0.731 µM [rising, full curve]
10 | CC(=O)c1cccc(N(CC(=O)NC2CCCC2)C(=O)CNC(=O)c2cccs2)c1 | 7.39% |  | 
11 | COc1ccc(N(CC(=O)NC2CC3CCC2C3)S(=O)(=O)c2ccccc2)cc1OC (centres undefined) | 23.5% |  | 
12 | Cc1ccc(CN(C)C(=O)CCc2c[nH]c3ccccc23)o1 | 22.6% | 6.51 µM [rising, partial curve, poor fit] | 6.51 µM [rising, single point]
13 | CCOC(=O)CNC(=O)N1CCCC(C(=O)c2cccc(Cl)c2)C1 (centres undefined) | 3.38% |  | 4.11 µM [falling, single point]
14 | O=c1[nH]c(C2CCN(S(=O)(=O)c3ccc(S(=O)(=O)NC4CC4)cc3)CC2)nc2c1nnn2Cc1ccc(F)cc1 | -23.1% |  | 29.1 µM [rising, single point]

Later entries

Row | Compound | cell number change | AC50 [1] | AC50 [2]
22 | CC(C)(C)c1ccc(C(=O)NCCN2CCCC2)cc1 | -9.51% |  | 4.61 µM [falling, full curve, poor fit]
23 | COc1ccc(CN2CCn3ncc(C(=O)Nc4ccc(Cl)cc4Cl)c3C2=O)cc1 | 18.5% |  | 
24 | CCOC(=O)N1CCN(C(=O)CSc2nnc(Cc3cccn3C)n2CCc2ccccc2)CC1 | 103% | 6.51 µM [falling, single point] | 9.2 µM [rising, partial curve]
25 | O=C(CSc1nc2ccc([N+](=O)[O-])cc2[nH]1)c1ccc(Cl)cc1 | 17.5% |  | 
26 | Cc1ccc(N(Cc2ccccc2)C(=O)c2ccc(F)cc2)cc1 | 35.1% | 16.4 µM [rising, partial curve, poor fit] | 
27 | O=C(Nc1ccccc1OC(F)F)c1ccc(Br)o1 |  |  | 6.51 µM [falling, single point]
28 | COc1ccc2nc(NC(=O)C3CCCN(S(=O)(=O)c4cccs4)C3)sc2c1 (centres undefined) | -80.5% | 18.4 µM [falling, single point] | 
29 | CCOC(=O)Cc1nc2ccccc2o1 | 30.6% | 29.1 µM [rising, single point] | 3.66 µM [rising, single point]
30 | O=C(Nc1ccccn1)c1ccc(Br)s1 | 17.6% |  | 
31 | COCC(C)n1c(COc2ccccc2F)nnc1SCC(=O)c1c(N)n(C)c(=O)n(C)c1=O (centres undefined) | -73% | 29.1 µM [falling, single point] | 29.1 µM [falling, partial curve]
32 | CC(C)(C)n1ncc2c(=O)n(CC(=O)OCc3ccccc3)cnc21 | 25.6% |  | 
33 | CCCCNC(=O)c1cccnc1SCC(=O)Nc1ccccc1OC | 19.5% |  | 0.517 µM [rising, full curve]
34 | COc1ccc(N2CC(C(=O)Nc3nnc(SCC(=O)N4CCCC4)s3)CC2=O)cc1 (centres undefined) | 22% |  | 
35 | COCCCNC(=O)C(=O)NCC(c1ccco1)N1CCN(c2ccc(OC)cc2)CC1 (centres undefined) | 12.8% |  | 6.51 µM [falling, single point]
36 | O=c1cc(CCl)nc2scc(-c3ccccc3)n12 | 12.8% |  | 
37 | O=C(NCc1ccncc1)c1nc(-c2cccs2)no1 | -21.9% |  | 25.9 µM [falling, single point]
38 | Cc1ccc(C)c(C(=O)N2CCN(c3ncccn3)CC2)c1 | 12.5% |  | 
39 | CCC(=O)c1ccc(OCC(=O)OCC(=O)NCC2CCCO2)cc1 (centres undefined) | 30.5% |  | 0.58 µM [rising, single point]
40 | COC(=O)c1ccc(/C=N/Nc2nc(-c3ccccc3)cs2)cc1 | 19.6% |  | 0.206 µM [rising, full curve, poor fit]
41 | O=C(NCCCn1ccnc1)c1csc2ccccc12 | -1.33% |  | 16.4 µM [rising, single point]
